Data from patent US20180170983A1, “New Use of Cell-Permeable Peptide Inhibitors of the JNK Signal Transduction Pathway for the Treatment of Mild Cognitive Impairment” (Xigen Inflammation Ltd., priority 2015, published 2018).
Not every detail of the peptide structures is certain; ends, links or a residue may be inferred. Ends that are not written are not given here.

The chains behind the UniProt entries cited, without tags or fusion partners.
UniProt P53779, whole entry, species assumed: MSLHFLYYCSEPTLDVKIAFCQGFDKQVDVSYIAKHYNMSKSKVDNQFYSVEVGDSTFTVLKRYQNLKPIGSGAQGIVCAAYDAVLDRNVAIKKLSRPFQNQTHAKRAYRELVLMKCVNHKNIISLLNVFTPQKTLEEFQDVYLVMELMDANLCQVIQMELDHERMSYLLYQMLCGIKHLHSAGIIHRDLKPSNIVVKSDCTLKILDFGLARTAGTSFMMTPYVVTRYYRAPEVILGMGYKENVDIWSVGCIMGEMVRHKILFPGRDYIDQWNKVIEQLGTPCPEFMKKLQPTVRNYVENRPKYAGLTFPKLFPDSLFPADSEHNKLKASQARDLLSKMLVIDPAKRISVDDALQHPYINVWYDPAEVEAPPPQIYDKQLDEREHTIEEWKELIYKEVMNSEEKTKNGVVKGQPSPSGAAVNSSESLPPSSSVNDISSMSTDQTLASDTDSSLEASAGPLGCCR

Assays:
[1] = tested on: pAPP (phosphorylated amyloid precursor protein); assay: pAPP level in hippocampus by immunoblot, 5XFAD mice; assay type: in vivo; conditions: vs saline
JNK3 = target: T1, JNK3 (Homo sapiens, UniProt P53779); assay: Solid phase kinase assay, JNK3 phosphorylation of Elk1; assay type: biochemical; conditions: dose response 0-25 μM
T1 construct: host or cells: rabbit reticulocyte lysate, in vitro transcription and translation

[2] = tested on: JNKs from UV-light irradiated HeLa cells or IL-1β treated PTC cells; assay: c-Jun phosphorylation by activated JNKs pulled down with GST-Jun; assay type: biochemical; conditions: peptides 25 μM, 20 minutes
[3] = tested on: activation of c-Jun following MKK4 and MKK7 mediated activation of JNK; assay: GAL4 / GAL-Jun luciferase reporter in HeLa cells; assay type: cell-based
AP-1 DNA binding complex = assay: Gel retardation assay with AP-1 probe, HeLa cell nuclear extracts; assay type: cell-based; conditions: HeLa cells, TNF-alpha 5 ng/ml, peptide added 30 minutes before

Row | Molecule | levels of pAPP ([1]; 3 months of treatment) | decrease of levels of pAPP ([1]; 6 months of treatment) [%] | inhibition of JNK3 phosphorylation of Elk1 (JNK3) | phosphorylation of c-Jun by activated JNKs [2] | JNK2 mediated activation of c-Jun (luciferase) ([3]; HeLa cells transfected with JNK3, peptide 1 μM) | activation of c-Jun following MKK4 and MKK7 mediated activation of JNK (luciferase) ([3]; HeLa cells, peptide 1 μM, 16 hours) | formation of the AP-1 DNA binding complex (AP-1 DNA binding complex)
1 | CC(C)C[C@@H](NC(=O)[C@@H](Cc1ccccc1)NC(=O)[C@H]1CCCN1C(=O)[C@@H](CCC(N)=O)NC(=O)[C@H](NC(=O)[C@H]1CCCN1C(=O)[C@@H](CCCNC(=N)N)NC(=O)[C@@H](CO)NC(=O)[C@@H](CCC(N)=O)NC(=O)[C@H](N)CC(=O)O)C(C)C)C(=O)N[C@H](CC(N)=O)C(=O)N[C@H](CC(C)C)C(=O)N[C@@H](C(=O)N[C@@H](C(=O)N1CCC[C@@H]1C(=O)N[C@H](CCCNC(=N)N)C(=O)N[C@H](CCCCN)C(=O)N1CCC[C@@H]1C(=O)N[C@H](CCCNC(=N)N)C(=O)N1CCC[C@@H]1C(=O)N1CCC[C@@H]1C(=O)N[C@H](CCCNC(=N)N)C(=O)N[C@H](CCCNC(=N)N)C(=O)N[C@H](CCCNC(=N)N)C(=O)N[C@H](CCC(N)=O)C(=O)N[C@H](CCCNC(=N)N)C(=O)N[C@H](CCCNC(=N)N)C(=O)N[C@H](CCCCN)C(=O)N[C@H](CCCCN)C(=O)N[C@H](CCCNC(=N)N)C(=O)NCC(=O)O)[C@H](C)O)[C@H](C)O [XG-102] | slight decrease | 36.2 | – | – | – | – | –
2 | GRKKRRQRRRPPRPKRPTTLNLFPQVPRSQD [L-TAT-IB1(s)] | – | – | absence | efficiently prevented phosphorylation of c-Jun by activated JNKs | inhibited JNK2 mediated activation of c-Jun | blocked activation of c-Jun | decrease the formation of the AP-1 DNA binding complex
